# Measurements reported in PubChem BioAssay AID1259308 (NCATS, 2017)
# Aim: 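Genes whose loss raises luciferase production in HEK293 cells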 (primary screen)
# Cell system: human HEK293 embryonic kidney cells stably expressing firefly luciferase (HEK-CMV-Luc2-Hygro)
# Reagents: single siRNA against human genes, 0.8 pmol siRNA per well
# Timing: 72 h
# Detection: 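Luciferase light (ONE-Glo) measured on one replicate plate set and viability (CellTiter-Glo) on the other, scaled to a negative control siRNA, with robust z-scores and luciferase per cell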
# Scale: total luciferase, z-score and total luciferase, % of control: higher = more reporter protein produced
# Hit rule: 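Active when the median/MAD z-score for overall luciferase is greater than 3; a gene was taken forward for validation with new siRNAs if at least two of its three siRNAs passed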
# Calls: active = raised luciferase; inactive = no rise
# The whole screen tested about 59,000 reagents; this is a random part of them. About 1,510 of all reagents (2.6%) were called active. 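Calls use total luciferase alone and ignore viability, so some active siRNAs may act by altering cell number.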 Entries without a mark were called inactive. The numbers tell different reagents against one gene apart. Not all columns of the deposit are shown.
Target gene,reagent,"total luciferase, z-score","total luciferase, % of control"
VSTM4 (GeneID 196740),1,-0.736,67.2
VSTM4 (GeneID 196740),2,0.448,90.8
VSTM4 (GeneID 196740),3,-0.78,66.4
CYP2R1 (GeneID 120227),1,0.18,85.5
CYP2R1 (GeneID 120227),2,-0.355,74.8
CYP2R1 (GeneID 120227),3,1.33,108
TCP11L2 (GeneID 255394),1,0.828,98.4
TCP11L2 (GeneID 255394),2,-0.186,78.2
TCP11L2 (GeneID 255394),3,-0.672,68.5
PRSS21 (GeneID 10942),1,-0.368,74.6
PRSS21 (GeneID 10942),2,0.709,96
PRSS21 (GeneID 10942),3,-0.384,74.3
ASB16-AS1 (GeneID 339201),1,-1.45,53
ASB16-AS1 (GeneID 339201),2,0.067,83.2
ASB16-AS1 (GeneID 339201),3,0.699,95.8
DEFB128 (GeneID 245939),1,1.72,116
DEFB128 (GeneID 245939),2,-2.59,30.4
DEFB128 (GeneID 245939),3,-0.595,70
UBE2R2 (GeneID 54926),1,2.13,124
UBE2R2 (GeneID 54926),2,1.2,106
UBE2R2 (GeneID 54926),3,-0.671,68.5
UPF3A (GeneID 65110),1,-0.695,68.1
UPF3A (GeneID 65110),2,1.12,104
UPF3A (GeneID 65110),3,1.62,114

Targets above whose target name starts with A or a:
Target gene,reagent,"total luciferase, z-score","total luciferase, % of control"
ASB16-AS1 (GeneID 339201),1,-1.45,53
ASB16-AS1 (GeneID 339201),2,0.067,83.2
ASB16-AS1 (GeneID 339201),3,0.699,95.8

More reagents follow:
Target gene,reagent,"total luciferase, z-score","total luciferase, % of control"
WARS1 (GeneID 7453),1,0.291,87.7
WARS1 (GeneID 7453),2,0.795,97.7
WARS1 (GeneID 7453),3,-1.2,57.9
BIRC3 (GeneID 330),1,0.228,86.4
BIRC3 (GeneID 330),2,0.229,86.4
BIRC3 (GeneID 330),3,0.456,91
GNAT2 (GeneID 2780),1,-0.447,73
GNAT2 (GeneID 2780),2,-0.305,75.8
GNAT2 (GeneID 2780),3,0.397,89.8
AHCY (GeneID 191),1,-0.165,78.6
AHCY (GeneID 191),2,2.7,136
AHCY (GeneID 191),3,1.4,110
ZKSCAN5 (GeneID 23660),1,0.945,101
ZKSCAN5 (GeneID 23660),2,-1.17,58.7
ZKSCAN5 (GeneID 23660),3,2.01,122
